Data on one substance can be found in PMC9029106.

Amino acid sequences for entries named in this document (tags omitted). A change or cut given only in a name is not applied to a line headed by its entry.
UniProt Q9Y252: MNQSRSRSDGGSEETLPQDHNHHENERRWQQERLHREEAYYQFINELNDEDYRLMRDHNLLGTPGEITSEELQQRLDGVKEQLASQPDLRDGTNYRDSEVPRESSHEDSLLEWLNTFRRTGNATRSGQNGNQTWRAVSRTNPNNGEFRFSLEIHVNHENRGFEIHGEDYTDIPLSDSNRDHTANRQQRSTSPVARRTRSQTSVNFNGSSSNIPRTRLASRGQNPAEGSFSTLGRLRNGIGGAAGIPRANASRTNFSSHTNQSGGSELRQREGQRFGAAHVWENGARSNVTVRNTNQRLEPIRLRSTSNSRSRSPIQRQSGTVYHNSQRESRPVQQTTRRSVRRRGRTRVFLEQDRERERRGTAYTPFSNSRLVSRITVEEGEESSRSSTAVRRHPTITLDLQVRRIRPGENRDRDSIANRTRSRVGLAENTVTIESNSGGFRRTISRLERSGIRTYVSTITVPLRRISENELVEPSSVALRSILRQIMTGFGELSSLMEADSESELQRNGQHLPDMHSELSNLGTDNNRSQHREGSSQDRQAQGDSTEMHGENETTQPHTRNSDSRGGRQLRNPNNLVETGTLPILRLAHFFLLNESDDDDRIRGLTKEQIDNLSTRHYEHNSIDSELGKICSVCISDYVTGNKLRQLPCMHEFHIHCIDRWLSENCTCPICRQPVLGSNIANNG
UniProt P46527: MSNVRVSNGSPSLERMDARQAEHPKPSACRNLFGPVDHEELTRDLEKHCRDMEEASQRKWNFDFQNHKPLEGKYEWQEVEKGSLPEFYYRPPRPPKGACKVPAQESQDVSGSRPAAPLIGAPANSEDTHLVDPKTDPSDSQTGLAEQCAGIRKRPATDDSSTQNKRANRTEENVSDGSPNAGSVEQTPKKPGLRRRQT

Results are given in words; binding and its absence hold for the method and conditions named. In cells and extracts the contact can be indirect.

The target in the assay is HA-tagged RNF6 KIL domain mutant (human) (UniProt Q9Y252). Kind of assay: co-IP; HA-tagged WT RNF6 and mutants cotransfected with p27 in HEK293 cells; MG132 (10 µM) for 6 h; blotted for HA and p27; the precipitating antibody is not told.

Consider WT p27 (from UniProt P46527 1-198), for which the binding result is “no binding”.
